Test results from patent publication WO2018102654A1.
Numbering of substitutions follows the chain as printed. These are yes or no findings as the source states them, for the method shown. Binding calls can cover weak binding; strength is not graded here.

Key:
[1] = molecular target: gastric inhibitory polypeptide (GIP), species not stated; experiment: surface plasmon resonance (values not given)
[2] = molecular target: synthetic mouse GIP(1-42) (mouse (Mus musculus)); experiment: hybridoma screen as described above (ELISA on mouse GIP and competition with mouse GIP in suspension)
[3] = molecular target: human gastric inhibitory polypeptide (glucose-dependent insulinotropic polypeptide) (human (Homo sapiens)); experiment: direct binding ELISA, human GIP on plate, anti-human IgG-HRP
[4] = molecular target: human gastric inhibitory polypeptide (glucose-dependent insulinotropic polypeptide) (human (Homo sapiens)); experiment: direct binding ELISA, human GIP on plate, serial dilutions of CHO supernate, anti-human IgG-HRP

B1: 10g10 monoclonal antibody (original mouse mAb from hybridoma 10g10) (antibody, V domains shown)
VH: QVQLQESGAELVRSGASVKLSCTASGFNIRDYYLHWIKQRPEQGLEWIGWIDPENGDTEYAPKFQDKATVTADTSSNTAYLQLNSLTSEDTAVYYCNVYGIYFMDYWGQGTTVTVSS
VL: DIQLTQSPSTMAASPGEKITITCSASSSISSNSLHWYQQKPGFSPKLLIYRTSNLASGVPGRFSGSGSGTSYSLTIGTMETEDVATYYCQQGSSFPRMLTFGTGTKLEIKR
binding [1]: binds | binding [2]: binds | binding [3]: binds

B2: LC2/HC3 humanized monoclonal antibody (antibody, V domains shown)
VH: QVQLQESGAEVKKPGASVKVSCKASGFNIRDYYLHWVRQAPGQGLEWMGWIDPENGDTEYAPKFQGRVTTTADTSISTAYMELSRLRSDDTAVYYCNVYGIYFMDYWGQGTLVTVSS
VL: DIQLTQSPSSVSASVGDRVTITCRASSSISSNSLHWYQQKPGKAPKLLIYRTSNLQSGVPSRFSGSGSGTDYTLTISSLQPEDFATYYCQQGSSFPRMLTFGQGTKLEIKR
binding [4]: binds

B3: LC1/HC1 humanized monoclonal antibody (antibody, V domains shown)
VH: QVQLVQSGAEVKKPGATVKISCKVSGFNIRDYYLHWVQQAPGKGLEWMGWIDPENGDTEYAPKFQGRVTITADTSTDTAYMELSSLRSEDTAVYYCNVYGIYFMDYWGQGTMVTVSS
VL: B2 VL with L4M, N54S
binding [4]: binds

B4: LC1/HC2 humanized monoclonal antibody (antibody, V domains shown)
VH: B3 VH with V24A, D77N
VL: B2 VL with L4M, N54S
binding [4]: binds

B5: LC1/HC3 humanized monoclonal antibody (antibody, V domains shown)
VH: B2 VH
VL: B2 VL with L4M, N54S
binding [4]: binds

B6: LC2/HC1 humanized monoclonal antibody (antibody, V domains shown)
VH: B3 VH
VL: B2 VL
binding [4]: binds

B7: LC3/HC3 humanized monoclonal antibody (antibody, V domains shown)
VH: B2 VH
VL: DIQMTQSPGTLSLSPGERATLSCRASSSISSNSLHWYQQKPGQAPRLLIYRTSNRATGIPARFSGSGSGTDYTLTISSLEPEDFAVYYCQQGSSFPRMLTFGGGTKVEIKR
binding [4]: binds

B8: LC2/HC2 humanized antibody (antibody, V domains shown)
VH: B3 VH with V24A, D77N
VL: B2 VL
binding [1]: binds | binding [4]: binds

B9: LC3/HC1 humanized monoclonal antibody (antibody, V domains shown)
VH: B3 VH
VL: B7 VL
binding [4]: binds

B10: LC3/HC2 humanized monoclonal antibody (antibody, V domains shown)
VH: B3 VH with V24A, D77N
VL: B7 VL
binding [4]: binds
